Data taken from patent publication US20170135990A1, “PHARMACEUTICAL COMPOSITIONS COMPRISING A 5,5-FUSED HETEROARYLENE FLAVIVIRIDAE INHIBITOR AND THEIR USE FOR TREATING OR PREVENTING FLAVIVIRIDAE INFECTION” (IDENIX PHARMACEUTICALS LLC, priority 2014, published 2017).
At least one read-out could not be matched to a standard name with certainty.

Assay: aqueous solubility and permeability, BCS classification
Type: physicochemical
Text: Compound A1 has a low aqueous solubility and low permeability and, thus, is classified as a BCS class IV compound, which presents a significant formulation challenge. Cook et al., AAPS J. 2008, 10, 306-310.

**Q.** With `COC(=O)N[C@H](C(=O)N1CCC[C@H]1c1nc2cc(-c3csc4c(-c5ccc(-c6cnc([C@@H]7CCCN7C(=O)[C@H](NC(=O)OC)c7ccccc7)[nH]6)cc5)csc34)ccc2[nH]1)C(C)C` [compound A1, methyl N-[(1R)-2-[(2S)-2-[5-[4-[6-[2-[(2S)-1-[(2S)-2-(methoxycarbonylamino)-3-methyl-butanoyl]pyrrolidin-2-yl]-3H-benzimidazol-5-yl]thieno[3,2-b]thiophen-3-yl]phenyl]-1H-imidazol-2-yl]pyrrolidin-1-yl]-2-oxo-1-phenyl-ethyl]carbamate] as the compound, how does the permeability read?
**A.** Its permeability is “low”.
